PubChem BioAssay AID504764 – Drosophila RNAi Screening Center, 2011
In all, the deposit lists about 22,000 reagents; below is an unselected part of those with a known target gene and a result. In the full data, 403 (1.9%) got an active call. 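Unnormalised raw counts per well; ratio z-scores behind the hit calls and whether each hit raises or lowers signal are not deposited.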 A number with no mark means an inactive call. A plus sign joins genes that one reagent is predicted to hit. No sequences are given here. The record does not give: the amount of reagent.

Test: 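Knock-downs that raise or lower a Notch target reporter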 (primary screen)
System: Drosophila Kc167 cells
Reagent: long dsRNA against Drosophila genes
Timing: about 5 days (4 days dsRNA, then 24 h after transfection)
Challenge: transfection of constitutively active membrane-tethered Notch lacking the extracellular domain, read 24 h later
Detection: 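Firefly luciferase from an E(spl)m3 reporter with active Notch, plus control-promoter and uninduced reporter wells for normalisation; unnormalised counts, duplicate wells a and b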
Direction: induced reporter light, run 1, well a and induced reporter light, run 1, well b: higher = more light from the Notch target reporter with active Notch; control promoter light, run 1, well a and control promoter light, run 1, well b: higher = more light from the viral control promoter (cell number, transfection, viability); uninduced reporter light, run 1, well a: higher = more light from the Notch target reporter without active Notch
Call rule: 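Wells with low control signal or poorly matching duplicates excluded; duplicates averaged; per source plate, z beyond ±2 for induced/control log2 ratio or beyond ±1.8 for induced/uninduced marks a hit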
Meaning of the calls: active = modifier hit (raised or lowered Notch signal); inactive = not a hit

Which result is listed for Cyp304a1 (Cytochrome P450 304a1) [DRSC16623]?
induced reporter light, run 1, well a: 3.06e5; induced reporter light, run 1, well b: 3.19e5; control promoter light, run 1, well a: 2.77e5; control promoter light, run 1, well b: 2.69e5; uninduced reporter light, run 1, well a: 19645

Which result is listed for Pisd (Phosphatidylserine decarboxylase) [DRSC15935]?
induced reporter light, run 1, well a: 1.55e5; induced reporter light, run 1, well b: 1.76e5; control promoter light, run 1, well a: 1.77e5; control promoter light, run 1, well b: 2.28e5; uninduced reporter light, run 1, well a: 12635

What is on record for Ugt37A3 (UDP-glycosyltransferase family 37 member A3) [DRSC15937]?
induced reporter light, run 1, well a: 90160; induced reporter light, run 1, well b: 85300; control promoter light, run 1, well a: 79490; control promoter light, run 1, well b: 59225; uninduced reporter light, run 1, well a: 5430

With faf (fat facets) [DRSC16942], how do the results read?
induced reporter light, run 1, well a: 1.38e5; induced reporter light, run 1, well b: 1.49e5; control promoter light, run 1, well a: 2.57e5; control promoter light, run 1, well b: 2.35e5; uninduced reporter light, run 1, well a: 10332

What did the screen give for CG9344 [DRSC04541]?
induced reporter light, run 1, well a: 41700; induced reporter light, run 1, well b: 30600; control promoter light, run 1, well a: 24175; control promoter light, run 1, well b: 25615; uninduced reporter light, run 1, well a: 1900

Which result is listed for pds5 [DRSC06670]?
induced reporter light, run 1, well a: 1.68e5; induced reporter light, run 1, well b: 1.58e5; control promoter light, run 1, well a: 2.02e5; control promoter light, run 1, well b: 2.15e5; uninduced reporter light, run 1, well a: 11825

For Rh4 (Rhodopsin 4) [DRSC11268], what was measured?
induced reporter light, run 1, well a: 2.15e5 (active); induced reporter light, run 1, well b: 2.45e5; control promoter light, run 1, well a: 2.49e5; control promoter light, run 1, well b: 1.60e5; uninduced reporter light, run 1, well a: 8890

How did the screen score Acp26Ab (Accessory gland protein 26Ab) [DRSC01856]?
induced reporter light, run 1, well a: 1.06e5; induced reporter light, run 1, well b: 89435; control promoter light, run 1, well a: 82840; control promoter light, run 1, well b: 71245; uninduced reporter light, run 1, well a: 4500

A portion taken from the entries so far, for reference:
Rh4 (Rhodopsin 4) [DRSC11268] — induced reporter light, run 1, well a: 2.15e5 (active); induced reporter light, run 1, well b: 2.45e5; control promoter light, run 1, well a: 2.49e5; control promoter light, run 1, well b: 1.60e5; uninduced reporter light, run 1, well a: 8890
Acp26Ab (Accessory gland protein 26Ab) [DRSC01856] — induced reporter light, run 1, well a: 1.06e5; induced reporter light, run 1, well b: 89435; control promoter light, run 1, well a: 82840; control promoter light, run 1, well b: 71245; uninduced reporter light, run 1, well a: 4500

More results follow:
What did the screen give for CG33791 + CG12105 + CG18170 [DRSC08387]?
induced reporter light, run 1, well a: 95195; induced reporter light, run 1, well b: 1.07e5; control promoter light, run 1, well a: 1.76e5; control promoter light, run 1, well b: 2.16e5; uninduced reporter light, run 1, well a: 8665

For Pstk + CG14210 + Tim9b [DRSC19566], what does the deposit list?
induced reporter light, run 1, well a: 68450; induced reporter light, run 1, well b: 70330; control promoter light, run 1, well a: 70445; control promoter light, run 1, well b: 94545; uninduced reporter light, run 1, well a: 6175

With Dhdds (Dehydrodolichyl diphosphate synthase subunit) [DRSC17756], how do the results read?
induced reporter light, run 1, well a: 1.46e5; induced reporter light, run 1, well b: 1.35e5; control promoter light, run 1, well a: 2.42e5; control promoter light, run 1, well b: 2.58e5; uninduced reporter light, run 1, well a: 10320

With gt (giant) [DRSC18782], what does the deposit list?
induced reporter light, run 1, well a: 20880; induced reporter light, run 1, well b: 26720; control promoter light, run 1, well a: 29975; control promoter light, run 1, well b: 33050; uninduced reporter light, run 1, well a: 3745

What did the screen give for CG16984 [DRSC08500]?
induced reporter light, run 1, well a: 1.61e5; induced reporter light, run 1, well b: 93695; control promoter light, run 1, well a: 1.65e5; control promoter light, run 1, well b: 1.57e5; uninduced reporter light, run 1, well a: 7585

With Phm (Peptidylglycine-alpha-hydroxylating monooxygenase) [DRSC04639], what does the deposit list?
induced reporter light, run 1, well a: 2.33e5; induced reporter light, run 1, well b: 1.98e5; control promoter light, run 1, well a: 1.72e5; control promoter light, run 1, well b: 1.87e5; uninduced reporter light, run 1, well a: 11905

For CG13070 [DRSC09953], how do the results read?
induced reporter light, run 1, well a: 1.90e5; induced reporter light, run 1, well b: 2.20e5; control promoter light, run 1, well a: 2.76e5; control promoter light, run 1, well b: 2.53e5; uninduced reporter light, run 1, well a: 8760

How did the screen score CG7840 [DRSC03075]?
induced reporter light, run 1, well a: 60805; induced reporter light, run 1, well b: 70600; control promoter light, run 1, well a: 54970; control promoter light, run 1, well b: 60035; uninduced reporter light, run 1, well a: 3990

How did the screen score CG13204 [DRSC06328]?
induced reporter light, run 1, well a: 1.12e5; induced reporter light, run 1, well b: 1.09e5; control promoter light, run 1, well a: 1.51e5; control promoter light, run 1, well b: 1.45e5; uninduced reporter light, run 1, well a: 10300

Which result is listed for CG9372 [DRSC11068]?
induced reporter light, run 1, well a: 1.59e5; induced reporter light, run 1, well b: 1.22e5; control promoter light, run 1, well a: 1.16e5; control promoter light, run 1, well b: 1.07e5; uninduced reporter light, run 1, well a: 8550

Which result is listed for CycJ (Cyclin J) [DRSC08653]?
induced reporter light, run 1, well a: 1.31e5; induced reporter light, run 1, well b: 1.50e5; control promoter light, run 1, well a: 1.06e5; control promoter light, run 1, well b: 41630; uninduced reporter light, run 1, well a: 9975

For CG33919 [DRSC04940], how do the results read?
induced reporter light, run 1, well a: 97555; induced reporter light, run 1, well b: 1.03e5; control promoter light, run 1, well a: 1.10e5; control promoter light, run 1, well b: 1.03e5; uninduced reporter light, run 1, well a: 4135

What did the screen give for CG5984 [DRSC15930]?
induced reporter light, run 1, well a: 1.39e5; induced reporter light, run 1, well b: 1.42e5; control promoter light, run 1, well a: 2.11e5; control promoter light, run 1, well b: 1.51e5; uninduced reporter light, run 1, well a: 12430

Which result is listed for mRpL48 (mitochondrial ribosomal protein L48) [DRSC00506]?
induced reporter light, run 1, well a: 1.53e5; induced reporter light, run 1, well b: 1.40e5; control promoter light, run 1, well a: 1.43e5; control promoter light, run 1, well b: 1.06e5; uninduced reporter light, run 1, well a: 9015

What is on record for CG13398 [DRSC02268]?
induced reporter light, run 1, well a: 1.40e5; induced reporter light, run 1, well b: 1.83e5; control promoter light, run 1, well a: 99160; control promoter light, run 1, well b: 1.13e5; uninduced reporter light, run 1, well a: 23150

How did the screen score Idgf5 (Imaginal disc growth factor 5) [DRSC06919]?
induced reporter light, run 1, well a: 96000; induced reporter light, run 1, well b: 1.14e5; control promoter light, run 1, well a: 2.01e5; control promoter light, run 1, well b: 1.93e5; uninduced reporter light, run 1, well a: 9015
